{"source": "patent EP1152011A1", "about": "(KYOWA HAKKO KOGYO CO., LTD., priority 1999, dated 2000)", "note": "Strings that start with PEPTIDE1 are HELM notation: dots part the residues, brackets hold end groups and non-standard residues.", "data": [{"assay": "general procedure: Fmoc solid-phase peptide synthesis; Rink Amide MBHA resin; PyBOP, HOBt monohydrate, NMM", "details": "whole synthesis, scale 23.5 µmol", "units": {"crude mass": "mg", "isolated mass": "mg"}, "values": [{"substance": "PEPTIDE1{L.S.L.W.S.E.W.S.D.A.S.V.T.A.G.[am]}$$$$V2.0", "crude mass": 38.3, "isolated mass": 9.4}, {"substance": "PEPTIDE1{M.S.E.W.I.T.W.S.P.A.S.I.S.A.G.[am]}$$$$V2.0", "crude mass": 42.7, "isolated mass": 13.7}]}, {"assay": "general procedure: Fmoc solid-phase peptide synthesis; Rink Amide MBHA resin; PyBOP, HOBt monohydrate, NMM", "details": "whole synthesis, scale 27.5 µmol", "units": {"crude mass": "mg", "isolated mass": "mg"}, "values": [{"substance": "PEPTIDE1{D.K.G.K.R.M.R.Q.R.M.L.K.A.Q.L.[am]}$$$$V2.0", "crude mass": 82.6, "isolated mass": 10.0}, {"substance": "PEPTIDE1{G.K.G.H.V.I.R.T.R.M.I.Q.M.E.[am]}$$$$V2.0", "crude mass": 66.6, "isolated mass": 17.6}, {"substance": "PEPTIDE1{L.T.E.W.S.Q.W.S.E.A.N.K.S.A.G.[am]}$$$$V2.0", "crude mass": 16.4, "isolated mass": 4.2}, {"substance": "PEPTIDE1{M.K.K.R.H.R.M.I.K.M.N.P.A.D.G.[am]}$$$$V2.0", "isolated mass": 26.7}, {"substance": "PEPTIDE1{M.R.P.W.T.A.W.S.E.A.T.K.L.A.G.[am]}$$$$V2.0", "crude mass": 80.1, "isolated mass": 3.9}, {"substance": "PEPTIDE1{M.T.E.W.G.E.W.D.E.A.S.A.T.A.G.[am]}$$$$V2.0", "crude mass": 50.9, "isolated mass": 2.6}, {"substance": "PEPTIDE1{P.A.P.E.T.V.Q.R.K.K.A.R.I.R.K.[am]}$$$$V2.0", "crude mass": 85.9, "isolated mass": 23.7}, {"substance": "PEPTIDE1{R.Y.M.T.V.K.K.R.F.K.S.S.Q.F.T.[am]}$$$$V2.0", "crude mass": 61.5, "isolated mass": 2.5}, {"substance": "PEPTIDE1{Y.S.N.W.S.P.W.S.A.A.S.S.S.T.A.D.[am]}$$$$V2.0", "crude mass": 56.5, "isolated mass": 3.1}]}]}
